This is one part of the list. The calls rarely recur for the same compound in another form.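 Kinases were expressed as nanoluciferase fusions in K562 cells and luminescence was read every 4 h between 2 and 18 h as percent of control, DMSO set to 100% and a positive control to 0%. A time point counts as decreased when the signal drops significantly (2 sigma). The hit call is the authors' own, does not follow from the count of time points alone, and its rule is not shown.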
Experiments:
Assay in all cases: kinase-Nluc reporter destabilization hit call (1 = scored as downregulated) (binary); higher = compound decreases kinase abundance
Conditions in all cases: K562; 2-18 h
CDK7 = CDK7 (UniProt P50613)
CDK9 = CDK9 (UniProt P50750)
CHEK2 = CHEK2 (UniProt O96017)
CSF1R = CSF1R (UniProt P07333)
CSK = CSK (UniProt P41240)
CSNK1A1 = CSNK1A1 (UniProt P48729)
CSNK1D = CSNK1D (UniProt P48730)
DDR1 = DDR1 (UniProt Q08345)
DYRK1B = DYRK1B (UniProt Q9Y463)
DYRK2 = DYRK2 (UniProt Q92630)
EGFR = EGFR (UniProt P00533)
EGFR_G719S = EGFR_G719S (UniProt P00533)
EGFR_G719S_T790M = EGFR_G719S_T790M (UniProt P00533)
EGFR_L718V = EGFR_L718V (UniProt P00533)
EGFR_L858R = EGFR_L858R (UniProt P00533)
EGFR_L861Q = EGFR_L861Q (UniProt P00533)
EGFR_T790M = EGFR_T790M (UniProt P00533)
EPHA2 = EPHA2 (UniProt P29317)
ERBB3 = ERBB3 (UniProt P21860)
[1] = biological target: ERBB4_R711C (clone: ERBB4_mut) (UniProt Q15303)

By UniProt entry, the sequences of proteins in these tests, tags left out. Where a name states a change or a piece, a line headed by the entry shows the natural chain unless it says otherwise.
UniProt P50613: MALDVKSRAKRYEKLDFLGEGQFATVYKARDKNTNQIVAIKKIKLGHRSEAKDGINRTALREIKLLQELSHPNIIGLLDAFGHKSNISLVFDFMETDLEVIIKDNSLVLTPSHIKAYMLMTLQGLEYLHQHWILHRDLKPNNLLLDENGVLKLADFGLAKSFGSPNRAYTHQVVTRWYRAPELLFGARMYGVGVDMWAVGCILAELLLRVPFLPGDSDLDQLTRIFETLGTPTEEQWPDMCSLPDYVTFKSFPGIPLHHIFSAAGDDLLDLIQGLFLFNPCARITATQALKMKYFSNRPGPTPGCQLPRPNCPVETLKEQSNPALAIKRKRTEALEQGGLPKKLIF
UniProt P50750, whole entry: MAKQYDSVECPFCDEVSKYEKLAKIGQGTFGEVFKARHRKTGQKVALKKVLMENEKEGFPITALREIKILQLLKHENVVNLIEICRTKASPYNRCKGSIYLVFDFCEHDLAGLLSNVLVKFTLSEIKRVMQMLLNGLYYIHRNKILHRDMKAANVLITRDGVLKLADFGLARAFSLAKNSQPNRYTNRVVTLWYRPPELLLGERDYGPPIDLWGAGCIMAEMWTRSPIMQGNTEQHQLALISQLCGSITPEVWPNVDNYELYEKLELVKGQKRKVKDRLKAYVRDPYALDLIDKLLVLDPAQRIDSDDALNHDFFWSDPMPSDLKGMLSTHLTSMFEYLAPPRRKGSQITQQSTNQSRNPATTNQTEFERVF
UniProt O96017, whole entry: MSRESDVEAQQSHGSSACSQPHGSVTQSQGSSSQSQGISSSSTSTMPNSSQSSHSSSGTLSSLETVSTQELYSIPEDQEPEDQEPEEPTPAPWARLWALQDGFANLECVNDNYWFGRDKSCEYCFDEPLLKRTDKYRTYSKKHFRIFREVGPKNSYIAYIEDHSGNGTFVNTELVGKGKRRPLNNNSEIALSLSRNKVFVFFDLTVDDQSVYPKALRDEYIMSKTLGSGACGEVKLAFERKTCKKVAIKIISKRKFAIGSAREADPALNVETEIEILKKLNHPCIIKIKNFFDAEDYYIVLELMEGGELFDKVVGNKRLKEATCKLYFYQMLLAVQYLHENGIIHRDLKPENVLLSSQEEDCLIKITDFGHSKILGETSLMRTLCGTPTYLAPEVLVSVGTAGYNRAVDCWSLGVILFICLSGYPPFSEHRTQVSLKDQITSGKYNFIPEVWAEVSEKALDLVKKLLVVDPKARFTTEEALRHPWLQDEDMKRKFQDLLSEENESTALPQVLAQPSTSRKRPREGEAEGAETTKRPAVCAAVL
UniProt P07333, whole entry: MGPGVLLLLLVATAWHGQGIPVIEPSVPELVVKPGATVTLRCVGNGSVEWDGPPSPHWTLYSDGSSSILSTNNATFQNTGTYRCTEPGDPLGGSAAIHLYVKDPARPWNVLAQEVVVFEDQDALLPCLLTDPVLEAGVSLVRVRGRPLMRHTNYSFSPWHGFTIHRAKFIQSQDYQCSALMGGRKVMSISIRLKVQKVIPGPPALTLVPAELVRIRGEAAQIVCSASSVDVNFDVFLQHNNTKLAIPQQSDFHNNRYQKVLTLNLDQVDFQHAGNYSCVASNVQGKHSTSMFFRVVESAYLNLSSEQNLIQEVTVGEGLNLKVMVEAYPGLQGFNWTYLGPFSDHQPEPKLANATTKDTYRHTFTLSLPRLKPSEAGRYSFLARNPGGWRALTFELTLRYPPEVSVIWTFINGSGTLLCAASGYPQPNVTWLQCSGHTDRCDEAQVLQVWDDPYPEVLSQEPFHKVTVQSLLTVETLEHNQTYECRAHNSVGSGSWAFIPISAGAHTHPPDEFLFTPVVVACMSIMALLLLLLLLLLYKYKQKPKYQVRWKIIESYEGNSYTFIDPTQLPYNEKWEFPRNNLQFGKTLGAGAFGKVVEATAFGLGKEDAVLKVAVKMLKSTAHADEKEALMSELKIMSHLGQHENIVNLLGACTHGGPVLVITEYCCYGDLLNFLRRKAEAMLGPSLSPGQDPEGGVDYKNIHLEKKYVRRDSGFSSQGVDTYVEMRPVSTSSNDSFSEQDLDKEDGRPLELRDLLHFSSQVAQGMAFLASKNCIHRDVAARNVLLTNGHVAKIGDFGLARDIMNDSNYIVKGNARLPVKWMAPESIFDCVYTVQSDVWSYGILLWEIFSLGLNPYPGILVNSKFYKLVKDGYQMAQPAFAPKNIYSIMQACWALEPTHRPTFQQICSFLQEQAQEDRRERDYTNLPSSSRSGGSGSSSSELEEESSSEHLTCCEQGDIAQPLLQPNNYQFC
UniProt P41240: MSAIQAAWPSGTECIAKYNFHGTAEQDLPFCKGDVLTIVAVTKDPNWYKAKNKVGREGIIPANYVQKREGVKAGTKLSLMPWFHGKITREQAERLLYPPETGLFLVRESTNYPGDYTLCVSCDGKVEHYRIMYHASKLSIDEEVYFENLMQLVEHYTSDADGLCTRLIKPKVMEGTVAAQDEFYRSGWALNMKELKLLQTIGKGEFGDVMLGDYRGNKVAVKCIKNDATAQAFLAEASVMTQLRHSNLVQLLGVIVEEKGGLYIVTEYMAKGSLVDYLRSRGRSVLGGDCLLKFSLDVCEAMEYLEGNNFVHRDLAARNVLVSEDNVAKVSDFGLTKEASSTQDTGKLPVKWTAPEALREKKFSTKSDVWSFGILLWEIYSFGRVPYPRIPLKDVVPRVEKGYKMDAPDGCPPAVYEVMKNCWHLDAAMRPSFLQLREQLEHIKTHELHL
UniProt P48729: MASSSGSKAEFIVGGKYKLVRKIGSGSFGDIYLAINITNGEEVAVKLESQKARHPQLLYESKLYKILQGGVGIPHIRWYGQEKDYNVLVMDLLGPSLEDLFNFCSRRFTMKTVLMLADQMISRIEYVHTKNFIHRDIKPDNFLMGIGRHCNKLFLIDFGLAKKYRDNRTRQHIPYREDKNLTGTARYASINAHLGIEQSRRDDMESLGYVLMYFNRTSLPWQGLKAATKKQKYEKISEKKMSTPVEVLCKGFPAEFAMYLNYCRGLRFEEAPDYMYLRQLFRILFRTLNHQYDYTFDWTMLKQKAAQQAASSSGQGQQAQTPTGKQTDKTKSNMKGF
UniProt P48730: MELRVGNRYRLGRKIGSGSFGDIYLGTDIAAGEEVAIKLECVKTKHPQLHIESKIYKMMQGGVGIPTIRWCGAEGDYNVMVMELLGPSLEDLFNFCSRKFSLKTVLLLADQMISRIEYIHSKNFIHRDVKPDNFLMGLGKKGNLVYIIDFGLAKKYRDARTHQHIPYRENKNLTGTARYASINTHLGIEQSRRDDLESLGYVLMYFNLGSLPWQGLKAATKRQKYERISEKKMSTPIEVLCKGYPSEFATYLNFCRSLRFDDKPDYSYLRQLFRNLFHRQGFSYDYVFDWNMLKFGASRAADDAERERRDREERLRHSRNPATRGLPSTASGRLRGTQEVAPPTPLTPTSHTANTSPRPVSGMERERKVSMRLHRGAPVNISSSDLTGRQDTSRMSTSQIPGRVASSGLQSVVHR
UniProt Q92630: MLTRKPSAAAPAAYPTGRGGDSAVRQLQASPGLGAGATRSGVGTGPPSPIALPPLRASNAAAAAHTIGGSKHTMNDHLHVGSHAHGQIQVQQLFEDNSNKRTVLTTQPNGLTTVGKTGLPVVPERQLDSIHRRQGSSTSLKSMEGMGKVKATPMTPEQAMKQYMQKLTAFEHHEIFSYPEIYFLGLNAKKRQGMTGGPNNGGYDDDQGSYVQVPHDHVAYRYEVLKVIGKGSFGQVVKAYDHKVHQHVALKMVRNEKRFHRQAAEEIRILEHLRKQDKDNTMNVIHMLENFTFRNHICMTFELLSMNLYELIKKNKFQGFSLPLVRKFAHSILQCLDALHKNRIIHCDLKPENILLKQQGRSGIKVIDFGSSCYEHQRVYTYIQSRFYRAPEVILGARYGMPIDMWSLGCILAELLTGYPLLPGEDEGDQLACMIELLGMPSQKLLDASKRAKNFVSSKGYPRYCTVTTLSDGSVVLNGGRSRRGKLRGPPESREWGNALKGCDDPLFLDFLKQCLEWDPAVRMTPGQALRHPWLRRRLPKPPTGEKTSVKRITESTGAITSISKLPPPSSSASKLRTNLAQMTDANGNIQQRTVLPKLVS
UniProt P29317, whole entry: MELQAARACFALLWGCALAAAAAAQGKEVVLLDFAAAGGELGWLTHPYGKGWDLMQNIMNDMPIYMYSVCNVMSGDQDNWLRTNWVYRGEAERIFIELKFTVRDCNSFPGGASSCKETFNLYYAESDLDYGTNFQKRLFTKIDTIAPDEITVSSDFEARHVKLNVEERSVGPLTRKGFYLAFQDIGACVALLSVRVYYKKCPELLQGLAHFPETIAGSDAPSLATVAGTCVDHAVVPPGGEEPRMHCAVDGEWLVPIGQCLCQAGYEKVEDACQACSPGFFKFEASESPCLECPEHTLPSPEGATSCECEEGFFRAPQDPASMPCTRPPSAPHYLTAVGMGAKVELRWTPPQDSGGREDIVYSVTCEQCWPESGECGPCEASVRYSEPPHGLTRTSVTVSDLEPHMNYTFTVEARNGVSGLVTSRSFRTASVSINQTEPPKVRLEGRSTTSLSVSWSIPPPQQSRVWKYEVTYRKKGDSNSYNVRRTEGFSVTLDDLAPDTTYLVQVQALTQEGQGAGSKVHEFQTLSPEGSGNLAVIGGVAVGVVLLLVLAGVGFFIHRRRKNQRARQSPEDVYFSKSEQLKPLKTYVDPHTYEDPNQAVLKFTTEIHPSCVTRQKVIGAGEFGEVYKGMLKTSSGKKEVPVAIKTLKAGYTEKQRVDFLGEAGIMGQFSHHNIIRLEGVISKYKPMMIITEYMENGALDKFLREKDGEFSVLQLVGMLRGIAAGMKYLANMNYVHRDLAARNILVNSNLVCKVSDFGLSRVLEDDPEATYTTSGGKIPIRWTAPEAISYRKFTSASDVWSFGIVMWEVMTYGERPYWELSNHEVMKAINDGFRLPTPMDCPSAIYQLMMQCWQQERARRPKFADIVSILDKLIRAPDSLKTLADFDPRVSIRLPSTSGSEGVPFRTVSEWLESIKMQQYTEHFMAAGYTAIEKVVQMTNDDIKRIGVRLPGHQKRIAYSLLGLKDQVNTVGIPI
UniProt P21860, whole entry: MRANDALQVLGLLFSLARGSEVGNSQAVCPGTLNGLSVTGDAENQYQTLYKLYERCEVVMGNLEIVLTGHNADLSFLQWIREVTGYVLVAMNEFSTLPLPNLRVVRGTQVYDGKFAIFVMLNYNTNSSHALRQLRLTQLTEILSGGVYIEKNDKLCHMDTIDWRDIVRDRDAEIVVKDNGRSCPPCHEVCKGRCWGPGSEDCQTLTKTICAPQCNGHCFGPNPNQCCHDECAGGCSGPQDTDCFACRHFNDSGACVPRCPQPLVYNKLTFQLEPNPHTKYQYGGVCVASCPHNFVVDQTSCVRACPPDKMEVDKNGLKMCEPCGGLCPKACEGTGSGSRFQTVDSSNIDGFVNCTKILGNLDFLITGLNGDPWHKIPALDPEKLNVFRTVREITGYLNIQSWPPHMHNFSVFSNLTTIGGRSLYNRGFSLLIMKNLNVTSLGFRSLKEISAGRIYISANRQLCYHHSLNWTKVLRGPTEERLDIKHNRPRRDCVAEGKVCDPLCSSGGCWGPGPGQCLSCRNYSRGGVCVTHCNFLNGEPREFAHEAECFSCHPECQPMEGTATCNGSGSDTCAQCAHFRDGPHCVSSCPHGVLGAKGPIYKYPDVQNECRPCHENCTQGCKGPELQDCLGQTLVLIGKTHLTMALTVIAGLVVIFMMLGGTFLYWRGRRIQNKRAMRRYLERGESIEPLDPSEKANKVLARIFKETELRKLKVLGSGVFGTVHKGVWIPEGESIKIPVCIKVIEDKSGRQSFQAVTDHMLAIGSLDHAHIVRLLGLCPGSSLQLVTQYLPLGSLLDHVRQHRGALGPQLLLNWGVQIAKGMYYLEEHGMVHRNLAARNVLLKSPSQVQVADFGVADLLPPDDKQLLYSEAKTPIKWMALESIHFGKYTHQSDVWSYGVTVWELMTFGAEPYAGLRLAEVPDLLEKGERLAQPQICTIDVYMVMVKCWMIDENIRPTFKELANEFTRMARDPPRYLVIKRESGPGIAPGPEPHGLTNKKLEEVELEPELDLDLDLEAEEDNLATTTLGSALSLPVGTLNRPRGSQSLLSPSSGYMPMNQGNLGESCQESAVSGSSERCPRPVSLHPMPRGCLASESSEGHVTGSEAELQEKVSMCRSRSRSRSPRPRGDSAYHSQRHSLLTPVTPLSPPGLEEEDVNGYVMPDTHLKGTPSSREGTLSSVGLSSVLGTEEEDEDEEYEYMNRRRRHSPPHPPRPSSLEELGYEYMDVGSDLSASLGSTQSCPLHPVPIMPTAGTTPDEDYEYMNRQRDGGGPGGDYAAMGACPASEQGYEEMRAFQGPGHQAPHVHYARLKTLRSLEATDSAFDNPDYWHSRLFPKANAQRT

Measured: kinase-Nluc reporter destabilization hit call

CC(c1ccc(-c2cnc3c(-c4ccc(S(N)(=O)=O)c5ccccc45)cnn3c2)cc1)N1CCCC1 (stereo not given) (2.5 µM)
inactive: CDK7 = 0 | CDK9 = 0 | CHEK2 = 0 | CSF1R 0 | CSK 0 | CSNK1A1 = 0 | CSNK1D 0 | DDR1 = 0 | DYRK1B 0 | DYRK2 = 0 | EGFR 0 | EGFR_G719S 0 | EGFR_G719S_T790M 0 | EGFR_L718V 0 | EGFR_L858R 0 | EGFR_L861Q 0 | EGFR_T790M 0 | EPHA2 = 0 | ERBB3 = 0 | [1] 0

NCCN1CCN(C/C=C/C(=O)N2CCC[C@@H](n3nc(-c4ccc(Oc5ccccc5)cc4)c4c(N)ncnc43)C2)CC1 [Ibrutinib-MPEA] (10 µM)
inactive: CDK7 = 0 | CDK9 = 0 | CHEK2 = 0 | CSF1R 0 | CSK 0 | CSNK1A1 = 0 | CSNK1D 0 | DDR1 = 0 | DYRK1B 0 | DYRK2 = 0 | EGFR 0 | EGFR_G719S 0 | EGFR_G719S_T790M 0 | EGFR_L718V 0 | EGFR_L858R 0 | EGFR_L861Q 0 | EGFR_T790M 0 | EPHA2 = 0 | ERBB3 = 0 | [1] 0

O=C(Nc1ccc(F)cc1F)[C@H](NC(=S)Nc1cc(C(F)(F)F)cc(C(F)(F)F)c1)c1ccccc1 (2.5 µM)
inactive: CDK7 = 0 | CDK9 = 0 | CHEK2 = 0 | CSF1R 0 | CSK 0 | CSNK1A1 = 0 | CSNK1D 0 | DDR1 = 0 | DYRK1B 0 | DYRK2 = 0 | EGFR 0 | EGFR_G719S 0 | EGFR_G719S_T790M 0 | EGFR_L718V 0 | EGFR_L858R 0 | EGFR_L861Q 0 | EGFR_T790M 0 | EPHA2 = 0 | ERBB3 = 0 | [1] 0

COc1cc(N2CCC(N3CCN(C)CC3)CC2)ccc1Nc1ncc(Cl)c(Nc2ccccc2P(C)(C)=O)n1 [Brigatinib] (2 µM)
inactive: CDK7 = 0 | CDK9 = 0 | CHEK2 = 0 | CSF1R 0 | CSK 0 | CSNK1A1 = 0 | CSNK1D 0 | DDR1 = 0 | DYRK1B 0 | DYRK2 = 0 | EGFR 0 | EGFR_G719S 0 | EGFR_G719S_T790M 0 | EGFR_L718V 0 | EGFR_L858R 0 | EGFR_L861Q 0 | EGFR_T790M 0 | EPHA2 = 0 | ERBB3 = 0 | [1] 0

Cc1cc(Nc2cc(Cl)nc(Oc3ccc([N+](=O)[O-])cc3)n2)n[nH]1 [Autophinib] (2.5 µM)
inactive: CDK7 = 0 | CDK9 = 0 | CHEK2 = 0 | CSF1R 0 | CSK 0 | CSNK1A1 = 0 | CSNK1D 0 | DDR1 = 0 | DYRK1B 0 | DYRK2 = 0 | EGFR 0 | EGFR_G719S 0 | EGFR_G719S_T790M 0 | EGFR_L718V 0 | EGFR_L858R 0 | EGFR_L861Q 0 | EGFR_T790M 0 | EPHA2 = 0 | ERBB3 = 0 | [1] 0

O=c1oc2cc(O)ccc2c2ccccc12 [Urolithin B] (10 µM)
inactive: CDK7 = 0 | CDK9 = 0 | CHEK2 = 0 | CSF1R 0 | CSK 0 | CSNK1A1 = 0 | CSNK1D 0 | DDR1 = 0 | DYRK1B 0 | DYRK2 = 0 | EGFR 0 | EGFR_G719S 0 | EGFR_G719S_T790M 0 | EGFR_L718V 0 | EGFR_L858R 0 | EGFR_L861Q 0 | EGFR_T790M 0 | EPHA2 = 0 | ERBB3 = 0 | [1] 0

C#CCN(C)C(=O)CCNc1nc(N2CCN(C(=O)C=C)CC2)c2cc(Cl)c(-c3c(O)cccc3F)c(F)c2n1 [ARS-1323-alkyne] (2.5 µM)
inactive: CDK7 = 0 | CDK9 = 0 | CHEK2 = 0 | CSF1R 0 | CSK 0 | CSNK1A1 = 0 | CSNK1D 0 | DDR1 = 0 | DYRK1B 0 | DYRK2 = 0 | EGFR 0 | EGFR_G719S 0 | EGFR_G719S_T790M 0 | EGFR_L718V 0 | EGFR_L858R 0 | EGFR_L861Q 0 | EGFR_T790M 0 | EPHA2 = 0 | ERBB3 = 0 | [1] 0

CC(C)CC1(O)CCN(C(=O)c2ccc(NS(=O)(=O)c3cccc4nccnc34)cc2)CC1 (10 µM)
inactive: CDK7 = 0 | CDK9 = 0 | CHEK2 = 0 | CSF1R 0 | CSK 0 | CSNK1A1 = 0 | CSNK1D 0 | DDR1 = 0 | DYRK1B 0 | DYRK2 = 0 | EGFR 0 | EGFR_G719S 0 | EGFR_G719S_T790M 0 | EGFR_L718V 0 | EGFR_L858R 0 | EGFR_L861Q 0 | EGFR_T790M 0 | EPHA2 = 0 | ERBB3 = 0 | [1] 0

C[C@@H](c1ccc2nccn2c1)n1nnc2ncc(-c3cnn(C)c3)nc21 [Savolitinib] (10 µM)
inactive: CDK7 = 0 | CDK9 = 0 | CHEK2 = 0 | CSF1R 0 | CSK 0 | CSNK1A1 = 0 | CSNK1D 0 | DDR1 = 0 | DYRK1B 0 | DYRK2 = 0 | EGFR 0 | EGFR_G719S 0 | EGFR_G719S_T790M 0 | EGFR_L718V 0 | EGFR_L858R 0 | EGFR_L861Q 0 | EGFR_T790M 0 | EPHA2 = 0 | ERBB3 = 0 | [1] 0

COc1ccc(C(=O)Nc2sc3c(c2C(N)=O)CCCC3)cc1OC (10 µM)
inactive: CDK7 = 0 | CDK9 = 0 | CHEK2 = 0 | CSF1R 0 | CSK 0 | CSNK1A1 = 0 | CSNK1D 0 | DDR1 = 0 | DYRK1B 0 | DYRK2 = 0 | EGFR 0 | EGFR_G719S 0 | EGFR_G719S_T790M 0 | EGFR_L718V 0 | EGFR_L858R 0 | EGFR_L861Q 0 | EGFR_T790M 0 | EPHA2 = 0 | ERBB3 = 0 | [1] 0

COc1ccc(CC(=O)Nc2nc3c(s2)CCc2ccccc2-3)cc1OC (10 µM)
inactive: CDK7 = 0 | CDK9 = 0 | CHEK2 = 0 | CSF1R 0 | CSK 0 | CSNK1A1 = 0 | CSNK1D 0 | DDR1 = 0 | DYRK1B 0 | DYRK2 = 0 | EGFR 0 | EGFR_G719S 0 | EGFR_G719S_T790M 0 | EGFR_L718V 0 | EGFR_L858R 0 | EGFR_L861Q 0 | EGFR_T790M 0 | EPHA2 = 0 | ERBB3 = 0 | [1] 0

COc1cc(S(C)(=O)=O)ccc1Nc1nc2ccc(-c3ccc(NC(=O)[C@H](C)c4ccc(F)cc4)cc3)cn2n1 [Empesertib] (10 µM)
inactive: CDK7 = 0 | CDK9 = 0 | CHEK2 = 0 | CSF1R 0 | CSK 0 | CSNK1A1 = 0 | CSNK1D 0 | DDR1 = 0 | DYRK1B 0 | DYRK2 = 0 | EGFR 0 | EGFR_G719S 0 | EGFR_G719S_T790M 0 | EGFR_L718V 0 | EGFR_L858R 0 | EGFR_L861Q 0 | EGFR_T790M 0 | EPHA2 = 0 | ERBB3 = 0 | [1] 0

NC1(Cc2ccc(Cl)cc2)CCN(c2ncnc3[nH]ccc23)CC1 (10 µM)
inactive: CDK7 = 0 | CDK9 = 0 | CHEK2 = 0 | CSF1R 0 | CSK 0 | CSNK1A1 = 0 | CSNK1D 0 | DDR1 = 0 | DYRK1B 0 | DYRK2 = 0 | EGFR 0 | EGFR_G719S 0 | EGFR_G719S_T790M 0 | EGFR_L718V 0 | EGFR_L858R 0 | EGFR_L861Q 0 | EGFR_T790M 0 | EPHA2 = 0 | ERBB3 = 0 | [1] 0

Entries shown so far with an NH in an aromatic ring, in the order listed:
Cc1cc(Nc2cc(Cl)nc(Oc3ccc([N+](=O)[O-])cc3)n2)n[nH]1 [Autophinib] (2.5 µM)
inactive: CDK7 = 0 | CDK9 = 0 | CHEK2 = 0 | CSF1R 0 | CSK 0 | CSNK1A1 = 0 | CSNK1D 0 | DDR1 = 0 | DYRK1B 0 | DYRK2 = 0 | EGFR 0 | EGFR_G719S 0 | EGFR_G719S_T790M 0 | EGFR_L718V 0 | EGFR_L858R 0 | EGFR_L861Q 0 | EGFR_T790M 0 | EPHA2 = 0 | ERBB3 = 0 | [1] 0

NC1(Cc2ccc(Cl)cc2)CCN(c2ncnc3[nH]ccc23)CC1 (10 µM)
inactive: CDK7 = 0 | CDK9 = 0 | CHEK2 = 0 | CSF1R 0 | CSK 0 | CSNK1A1 = 0 | CSNK1D 0 | DDR1 = 0 | DYRK1B 0 | DYRK2 = 0 | EGFR 0 | EGFR_G719S 0 | EGFR_G719S_T790M 0 | EGFR_L718V 0 | EGFR_L858R 0 | EGFR_L861Q 0 | EGFR_T790M 0 | EPHA2 = 0 | ERBB3 = 0 | [1] 0

From the supplement of paper PMC12823440, “Inhibitors supercharge kinase turnover through native proteolytic circuits” (Nature, 2025)
